# Laboratory results from PubChem BioAssay AID1487 (National Center for Advancing Translational Sciences (NCATS), 2009).
# The other results are listed elsewhere or left out. These are further read-outs of the screen, such as a control signal, another cell line or another target. No call is given for them. The list favours compounds with an active or inconclusive main result. Potencies come from curve fits of mixed quality, noted in brackets.
# Assay: qHTS Assay for Modulators of Lamin A Splicing
# Conditions: HeLa LMNA splicing GFP/RFP minigene ratio, 48 h
# Summary of the method: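 S3 HeLa stable clones carrying a lamin A-EGFP splicing minigene plus DsRed2 were seeded at 600 cells/well in Opti-MEM with 2% FBS, pin-dosed and incubated 48 h at 37°C. Acumen cytometry (488 nm) gave the GFP/RFP total-intensity ratio.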
# [1] = measured here: GFP splicing reporter channel
# [2] = measured here: RFP viability control channel
Structure (SMILES),AC50 [1],AC50 [2]
CC(C)n1c(C(O)c2ccccc2)nc2ccccc21 (stereo not drawn),"8.91 µM [rising, partial curve, poor fit]","11.2 µM [rising, single point]"
CCN1C(=O)N/C(=C/c2cc(C)n(Cc3ccccc3)c2C)C1=O,"11.2 µM [rising, partial curve]","22.4 µM [rising, single point]"
O=C(CCc1nnc(Cc2c[nH]c3ccccc23)o1)NCC1CC12CCCCC2 (stereo not drawn),"12.6 µM [falling, single point]","12.6 µM [falling, single point]"
COc1cc(OC)c(NC(=O)C(C)n2nc(-c3ccc(C)c(C)c3)ccc2=O)cc1Cl (stereo not drawn),–,"0.891 µM [falling, partial curve]"
COc1ccc(C(=O)Nc2ccc3c(c2)N(C)C(=O)c2ccccc2S3)cc1OC,"31.6 µM [rising, single point]",–
Cn1c(=O)c2c(nc(SCCN3CCOCC3)n2Cc2ccccc2Cl)n(C)c1=O,"25.1 µM [rising, single point]",–
Cc1ccc(S(=O)(=O)N(CCC(=O)Nc2ccc(OC(F)(F)F)cc2)c2ccccc2)cc1,–,"20 µM [rising, single point]"
O=C(Nc1cccc(Cl)c1)C1=Cc2cc(Cl)ccc2OC1,"35.5 µM [rising, single point]","35.5 µM [rising, single point]"
COc1ccc(NC(=O)c2ccc3c(=O)n4nc(Nc5ccccc5C)sc4nc3c2)cc1,–,"35.5 µM [falling, single point]"
Cc1nnc(N2CCC(C(=O)NCc3cccc(Cl)c3)CC2)c2nn(-c3ccccc3)c(C)c12,"35.5 µM [falling, single point]","35.5 µM [falling, single point]"
CCOC(=O)c1c(NC(=O)COC(=O)Cn2cnc3ccccc32)sc(C)c1C,"35.5 µM [rising, single point]","35.5 µM [rising, single point]"
FC(F)(F)c1cccc(Cn2cnc(NC(=S)NCCc3ccccc3)n2)c1,–,"0.794 µM [falling, full curve, poor fit]"
COc1ccc(/C=N/NC(=O)CCSc2nc3ccccc3s2)cc1,–,"1.58 µM [rising, full curve, poor fit]"
O=C(NNC(=S)NCc1ccccc1)c1ccc(Br)o1,"20 µM [rising, partial curve, poor fit]",–
O=C(CN1CCN(c2ccccn2)CC1)Nc1cccc(C(F)(F)F)c1,–,"2.82 µM [rising, full curve]"
Cc1cc(-c2cccs2)c2c(N)c(C(=O)c3ccc4c(c3)OCO4)sc2n1,–,"35.5 µM [rising, single point]"
O=C(CSc1ccccc1)Nc1ccncc1,–,"14.1 µM [rising, partial curve]"
Clc1ccc(OCCn2cnc3ccccc32)c(Cl)c1,"22.4 µM [rising, single point]","31.6 µM [rising, single point]"
C/C(=N\NC(N)=O)c1ccccc1,"0.0141 µM [rising, full curve, poor fit]","0.0112 µM [rising, full curve, poor fit]"
O=C1CCc2ccc(NS(=O)(=O)c3ccc(F)cc3)cc2N1,–,"0.02 µM [falling, full curve, poor fit]"
N#Cc1ccc(OCC(=O)NCC2(N3CCCCC3)CCCCC2)cc1,"0.562 µM [rising, full curve]","0.562 µM [rising, full curve]"
O=[N+]([O-])c1nn(-c2ccc3c(c2)OCCO3)n(O)c1=NC1CCCCCC1,"35.5 µM [rising, single point]","35.5 µM [rising, single point]"
COC(=O)c1sccc1NC(=S)Nc1ccc(F)cc1,"5.01 µM [falling, partial curve, poor fit]","5.01 µM [falling, partial curve, poor fit]"
Cc1ccc(NC(=O)c2ccc(OC(F)(F)F)cc2)cc1S(=O)(=O)N(C)C,–,"6.31 µM [rising, partial curve]"
Cc1cccc(NC(=O)/C=C/c2ccc([N+](=O)[O-])s2)c1,"17.8 µM [falling, single point]","10 µM [falling, partial curve]"
N[C@@H](CCCC(=O)O)C(=O)O,"0.126 µM [rising, full curve, poor fit]","5.62 µM [falling, single point]"

# Copied from the list.
# Value of C/C(=N\NC(N)=O)c1ccccc1 under AC50 [2]: 0.0112 µM [rising, full curve, poor fit]
# Value of FC(F)(F)c1cccc(Cn2cnc(NC(=S)NCCc3ccccc3)n2)c1 under AC50 [2]: 0.794 µM [falling, full curve, poor fit]
# Value of Cc1cccc(NC(=O)/C=C/c2ccc([N+](=O)[O-])s2)c1 under AC50 [1]: 17.8 µM [falling, single point]
# Value of Cc1ccc(S(=O)(=O)N(CCC(=O)Nc2ccc(OC(F)(F)F)cc2)c2ccccc2)cc1 under AC50 [2]: 20 µM [rising, single point]

# Additional structures follow.

Structure (SMILES),AC50 [1],AC50 [2]
COc1ccccc1-n1c2nc3ccccc3nc2c2c(=O)n(-c3cc(C)cc(C)c3)cnc21,–,"0.501 µM [rising, full curve]"
COc1cc(OC)c(C2C=C(c3ccc(C)cc3)Nc3c(C(=O)Nc4ccccc4)cnn32)cc1OC (stereo not drawn),"0.355 µM [rising, partial curve]","20 µM [rising, partial curve, poor fit]"
CCN(CC)c1ccc(N=Nc2ncn[nH]2)cc1,–,"0.0708 µM [falling, full curve, poor fit]"
Cc1cc(O)c(C(c2ccccc2Cl)N2CCCCC2)c(=O)n1Cc1ccco1 (stereo not drawn),"1.41 µM [rising, full curve, poor fit]","2.82 µM [rising, full curve, poor fit]"
COC(=O)C1=C(C)NC(=O)NC1c1cn(-c2ccccc2)nc1-c1ccc(OC)c(Cl)c1 (stereo not drawn),"0.0224 µM [rising, full curve, poor fit]","5.01 µM [rising, partial curve, poor fit]"
C/C(=N\NC(=O)c1ccc(Cn2cc(Br)cn2)o1)c1cccc(NC(=O)C(C)C)c1,–,"35.5 µM [rising, single point]"
N#Cc1ccccc1Sc1ccccc1C(=O)Nc1ccccc1,–,"3.16 µM [falling, partial curve]"
CCOC(=O)C(=O)N(Nc1ccccc1C)c1ccccc1C,–,"10 µM [falling, partial curve, poor fit]"
O=C(/C=C/c1ccccc1)c1ccc2c3c(cccc13)CC2,"14.1 µM [falling, single point]","14.1 µM [falling, single point]"
O=C(COC(=O)c1ccccc1Nc1ccc(SC(F)F)cc1)NCc1ccco1,"7.94 µM [falling, partial curve]",–
C=CCNC(=O)Nc1ccc(F)cc1F,"15.8 µM [falling, partial curve, poor fit]",–
CC(C)(C)c1ccc(/C=N/OCC(=O)NCc2ccc(F)cc2)cc1,"35.5 µM [rising, single point]","35.5 µM [rising, single point]"
Cc1cccc(N2CCN(C(=O)c3cn(C)c(=O)c4c3c3ccccc3n4C)CC2)c1C,"17.8 µM [rising, single point]","17.8 µM [rising, partial curve]"
CCOc1ccccc1NS(=O)(=O)c1c(C(=O)OC)sc2cccc(F)c12,"0.631 µM [falling, partial curve, poor fit]",–
CC(C)OC(=O)C(C(=O)C(F)(F)F)c1cc(NS(=O)(=O)c2ccc3ccccc3c2)c2ccccc2c1O (stereo not drawn),"35.5 µM [falling, partial curve]","35.5 µM [falling, partial curve, poor fit]"
COc1cccc(-c2nc(SC(C(C)=O)C(=O)N(C)C)c3c(=O)n(C)c(=O)n(C)c3n2)c1 (stereo not drawn),"0.398 µM [rising, single point]",–
Cn1cc(C(=O)Nc2ccc(Cl)cc2)c(C(F)(F)F)n1,"0.0224 µM [falling, partial curve, poor fit]","0.0224 µM [falling, full curve, poor fit]"
COc1ccc(-n2c(=O)c3c(C)c(C)sc3n(Cc3ccc(F)cc3)c2=O)c(OC)c1,–,"0.01 µM [falling, full curve, poor fit]"
Cc1ccc(-c2ccc(/C=C3/NC(=O)NC3=O)o2)cc1[N+](=O)[O-],"2.82 µM [rising, full curve, poor fit]","12.6 µM [rising, partial curve]"
COc1ccc(-n2c(=O)c(-c3ccccc3)nc3cnc(N4CCOCC4)nc32)cc1,–,"20 µM [falling, partial curve, poor fit]"
COc1cccc(C(=O)Oc2cc3c4c(c2)C(C)=CC(C)(C)N4C(=O)C3=O)c1,"35.5 µM [falling, single point]","25.1 µM [falling, single point]"
CCOc1ccc(C(=O)C(CCC(CN(C)C)C(=O)c2ccc(OCC)cc2)CN(C)C)cc1 (stereo not drawn),"7.08 µM [falling, partial curve]","17.8 µM [falling, single point]"
COc1ccccc1NC(=O)Cn1c(SCC(=O)NCc2ccccc2)nc2ccccc21,"35.5 µM [falling, single point]",–
NS(=O)(=O)c1ccc(CCNC(=O)CN2CCN(c3ccc(F)cc3)CC2)cc1,"22.4 µM [rising, partial curve, poor fit]","35.5 µM [rising, partial curve]"
COc1ccc(CCC(=O)NCCc2csc(-c3cccc(F)c3)n2)cc1,"35.5 µM [rising, single point]","35.5 µM [rising, single point]"
Cc1ccc(NS(=O)(=O)c2ccc(NC(=O)C(C)Sc3ccc(Cl)cc3)cc2)c(C)c1 (stereo not drawn),"31.6 µM [falling, single point]",–
